Experimental findings from article PMC9843532 are described below.

No constants are given. Whether binding was seen depends on the method and setting. Binding seen in cells or lysates may run through a third protein. Some entries that bind do so weakly or less than the wild type.

For the test, the target named is T1, LNK (human (endogenous in primary erythroblasts)), Q9UQQ2.
T1 chain: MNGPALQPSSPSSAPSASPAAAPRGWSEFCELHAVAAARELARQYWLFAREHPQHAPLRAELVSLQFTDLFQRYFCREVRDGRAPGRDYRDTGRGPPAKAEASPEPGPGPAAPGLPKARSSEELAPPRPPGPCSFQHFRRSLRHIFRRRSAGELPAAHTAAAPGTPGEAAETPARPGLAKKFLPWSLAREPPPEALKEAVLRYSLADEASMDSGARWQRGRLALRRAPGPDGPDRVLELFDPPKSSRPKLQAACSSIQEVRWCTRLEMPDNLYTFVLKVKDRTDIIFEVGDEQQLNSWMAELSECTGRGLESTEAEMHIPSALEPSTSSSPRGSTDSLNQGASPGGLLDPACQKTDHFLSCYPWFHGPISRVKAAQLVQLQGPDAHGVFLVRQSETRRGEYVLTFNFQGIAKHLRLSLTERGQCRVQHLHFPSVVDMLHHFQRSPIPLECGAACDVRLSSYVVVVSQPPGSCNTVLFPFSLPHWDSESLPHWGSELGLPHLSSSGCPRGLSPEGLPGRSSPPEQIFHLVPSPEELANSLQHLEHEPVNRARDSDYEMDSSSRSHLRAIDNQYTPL
Briefly: co-IP; endogenous proteins in lysates of human primary erythroblasts after DMSO or 0.5 μM ACY-1215 exposure; IP buffer with 1% NP40, 150 mM NaCl, 5 mM EDTA, Tris HCl pH 8; antibody against 14-3-3ζ or LNK (2 μg) overnight at 4°C, μMACS Protein G Microbeads; partner detected by immunoblot. To be noted: remark: other sources report otherwise.

B1: JAK2, O60674 1-1132 (protein)
chain: MGMACLTMTEMEGTSTSSIYQNGDISGNANSMKQIDPVLQVYLYHSLGKSEADYLTFPSGEYVAEEICIAASKACGITPVYHNMFALMSETERIWYPPNHVFHIDESTRHNVLYRIRFYFPRWYCSGSNRAYRHGISRGAEAPLLDDFVMSYLFAQWRHDFVHGWIKVPVTHETQEECLGMAVLDMMRIAKENDQTPLAIYNSISYKTFLPKCIRAKIQDYHILTRKRIRYRFRRFIQQFSQCKATARNLKLKYLINLETLQSAFYTEKFEVKEPGSGPSGEEIFATIIITGNGGIQWSRGKHKESETLTEQDLQLYCDFPNIIDVSIKQANQEGSNESRVVTIHKQDGKNLEIELSSLREALSFVSLIDGYYRLTADAHHYLCKEVAPPAVLENIQSNCHGPISMDFAISKLKKAGNQTGLYVLRCSPKDFNKYFLTFAVERENVIEYKHCLITKNENEEYNLSGTKKNFSSLKDLLNCYQMETVRSDNIIFQFTKCCPPKPKDKSNLLVFRTNGVSDVPTSPTLQRPTHMNQMVFHKIRNEDLIFNESLGQGTFTKIFKGVRREVGDYGQLHETEVLLKVLDKAHRNYSESFFEAASMMSKLSHKHLVLNYGVCVCGDENILVQEFVKFGSLDTYLKKNKNCINILWKLEVAKQLAWAMHFLEENTLIHGNVCAKNILLIREEDRKTGNPPFIKLSDPGISITVLPKDILQERIPWVPPECIENPKNLNLATDKWSFGTTLWEICSGGDKPLSALDSQRKLQFYEDRHQLPAPKWAELANLINNCMDYEPDFRPSFRAIIRDLNSLFTPDYELLTENDMLPNMRIGALGFSGAFEDRDPTQFEERHLKFLQQLGKGNFGSVEMCRYDPLQDNTGEVVAVKKLQHSTEEHLRDFEREIEILKSLQHDNIVKYKGVCYSAGRRNLKLIMEYLPYGSLRDYLQKHKERIDHIKLLQYTSQICKGMEYLGTKRYIHRDLATRNILVENENRVKIGDFGLTKVLPQDKEYYKVKEPGESPIFWYAPESLTESKFSVASDVWSFGVVLYELFTYIEKSKSPPAEFMRMIGNDKQGQMIVFHLIELLKNNGRLPRPDGCPDEIYMIMTECWNNNVNQRPSFRDLALRVDQIRDNMAG
Turning to B1, the binding entry was “binds”.
